Experimental data: PubChem BioAssay AID720505 (Drosophila RNAi Screening Center, 2013)

- Assay: 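Fly regulators or components of the CRAC channel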 (primary screen)
- Cell system: Drosophila S2R+ cells
- Reagent: long dsRNA against Drosophila genes
- Challenge: thapsigargin (2 µM) in calcium-free buffer to empty internal stores, then 2 mM calcium added back
- Measurement: 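Stores emptied by 2 µM thapsigargin without calcium, then 2 mM calcium re-added; fluo-4 fluorescence followed by FLIPR in 384-well plates, per-well averaged endpoint, raw; two screen passes, some wells retested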
- Scale: calcium signal and retest calcium signal: higher = more calcium entry after store depletion
- Rule for the call: 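Knock-downs counted as hits when calcium entry dropped relative to STIM1 positive and Rho1 negative controls present on each plate; roughly 1500 genes called, with reductions of differing size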
- Calls: active = called as lowering calcium entry; inactive = not called
The screen tested about 20,000 reagents; below is an unselected part of those that have a named target and a result. Of all reagents, about 2,100 (10%) are marked active. 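Raw plate signals without normalisation; calls rest on control-based scores that were not deposited; replicate 2 separates called from uncalled poorly.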 Names joined by + are all predicted targets of the reagent. No sequences are given here. Not stated in the record: the amount of reagent, the time to read-out.

gene knocked down	amplicon	calcium signal, replicate 1	calcium signal, replicate 2	retest calcium signal, replicate 1	retest calcium signal, replicate 2	Outcome
CG9702	DRSC16540	185	201			inactive
ATbp ((A+T)-stretch binding protein)	DRSC20906	262	101			inactive
CG9921	DRSC20220	107	154			inactive
CG3502 + CG9863	DRSC04578	96.3	224			inactive
RecQ4 (RecQ4 helicase)	DRSC11265	76	86.9			inactive
Obp56a (Odorant-binding protein 56a)	DRSC06085	171	148			inactive
Idi (Isopentenyl-diphosphate delta isomerase)	DRSC15918	184	360			inactive
ppk26 (pickpocket 26)	DRSC10991	62	92.4			inactive
CG15177	DRSC12557	101	169			inactive
CG17196	DRSC15189	222	180			inactive
Mlh1	DRSC07473	208	129			inactive
Hsdl2 (Hydroxysteroid dehydrogenase like 2)	DRSC15839	113	126			inactive
CG32554	DRSC22713	142	190			inactive
Wdr82 (WD repeat domain 82)	DRSC02595	111	290	90.4	121	inactive
Wdr82 (WD repeat domain 82)	DRSC21723	157	107			inactive
Osi19 (Osiris 19)	DRSC12569	128	131			inactive
c(2)M (crossover suppressor on 2 of Manheim)	DRSC01922	72.5	147			inactive
CG10510	DRSC11614	72.6	46.2			active
Pp2A-29B (Protein phosphatase 2A at 29B)	DRSC03400	138	180			inactive
RNaseZ (Ribonuclease Z)	DRSC06845	125	116			inactive
wus (wurst)	DRSC20278	76.9	102			active
Jhbp1 (Juvenile hormone binding protein 1)	DRSC12167	112	145			inactive
disp (dispatched)	DRSC12376	120	180			inactive
CG14982	DRSC08440	83.6	83.6			inactive
CG14982	DRSC23022	98.8	146			inactive
Ide (Insulin degrading metalloproteinase)	DRSC11867	128	86			inactive
croc (crocodile)	DRSC11884	76.6	163			inactive
CG12691	DRSC17880	147	150			inactive
CG3808	DRSC10377	53	69.6			active
Hers (Histone gene-specific Epigenetic Repressor in late S phase)	DRSC19429	143	133			inactive
Hers (Histone gene-specific Epigenetic Repressor in late S phase)	DRSC19676	58.5	97.1			active
Or19a (Odorant receptor 19a)	DRSC20684	222	91.2			inactive
Sas-6 (Spindle assembly abnormal 6)	DRSC15061	180	212			inactive
Jhbp3 (Juvenile hormone binding protein 3)	DRSC12247	107	112			inactive
CG13369	DRSC18481	68.5	136			inactive
Sting	DRSC06615	105	238			inactive
Rpt4 (Regulatory particle triple-A ATPase 4)	DRSC18713	96.9	87.5			active
CG18284	DRSC02661	64.5	115			active
CG18284	DRSC20756	94.3	8903			inactive
CG10799	DRSC06002	110	190			inactive
CG5004	DRSC19929	89.3	122			inactive
CG5004	DRSC19930	62.8	147			active
CG5004	DRSC20123	89.5	136			inactive
Polr1B (RNA polymerase I subunit B)	DRSC00780	71.9	138			inactive
CG14543	DRSC14887	187	102			inactive
rswl (roswell)	DRSC06923	151	82.9			inactive
Plap (Phospholipase A2 activator protein)	DRSC00678	129	285			inactive
CG30002	DRSC05182	135	154			inactive
CG10019	DRSC00279	165	98.2			inactive
CG34382	DRSC08999					inactive
CG34382	DRSC10166	111	80.3			inactive
CG34382	DRSC10167	101	77.8			inactive
mRpL3 (mitochondrial ribosomal protein L3)	DRSC20100	80	149			inactive
CG3732	DRSC04410	157	125			inactive
osp (outspread)	DRSC01409	175	88.9			inactive
osp (outspread)	DRSC03585	68.8	118			active
org-1 (optomotor-blind-related-gene-1)	DRSC18810	208	125			inactive
org-1 (optomotor-blind-related-gene-1)	DRSC22974	94.2	80.4			inactive
Tom70 (Translocase of outer membrane 70)	DRSC02990	88.8	134	116	120	inactive
CG32299 + CG32298	DRSC07980					active
CG32299 + CG32298	DRSC22354	103	236			inactive
CG9154	DRSC03150	107	271			inactive
Neos (Neosin)	DRSC11235	77.3	115			inactive
Tina-1 (Troponin C-akin-1)	DRSC04317	56.3	93.6			active
Sec24CD (Secretory 24CD)	DRSC00300	40.4	124			active
Pi4KIIalpha (Phosphatidylinositol 4-kinase II alpha)	DRSC12322	114	138			inactive
Pi4KIIalpha (Phosphatidylinositol 4-kinase II alpha)	DRSC12323	155	240			inactive
qkr58E-2 (quaking related 58E-2)	DRSC04710	73.1	96.7			active
HP1c (Heterochromatin Protein 1c)	DRSC16166	186	287	163	149	inactive
CG14013	DRSC02344	90.6	88.4			inactive
psidin (phagocyte signaling impaired)	DRSC15660	136	82.3			inactive
CG31999	DRSC17131	122	168			inactive
CG31999	DRSC17133	128	178			inactive
RpL41 (Ribosomal protein L41)	DRSC22958	100	107			inactive
Ir7a (Ionotropic receptor 7a)	DRSC17866	229	74.9			inactive
CG8046	DRSC07059	126	77.3			inactive
Ripalpha (RPA-interacting protein alpha)	DRSC02657	151	108			inactive
CG11044	DRSC06026	160	129			inactive
Ldsdh1 (Lipid droplet subset dehydrogenase 1)	DRSC18219	168	136			inactive
CG13003	DRSC19522	121	113			inactive
robo1 (roundabout 1)	DRSC04712	184	250			inactive
CG32590	DRSC19594	96.1	164			inactive
Nubp2 (NUBP iron-sulfur cluster assembly factor 2)	DRSC11758	115	153			inactive

Look-ups from the list:
Entry for Jhbp1 (Juvenile hormone binding protein 1) [DRSC12167] under “Outcome”: inactive
Result for Mlh1 [DRSC07473] in “Outcome”: inactive
Value of CG34382 [DRSC10167] in “Outcome”: inactive
Value of CG34382 [DRSC08999] under “Outcome”: inactive
